The supplement of paper PMC10849652
This is one part of the list. Residues, ends and D or L forms follow the SMILES beside them. *: point of attachment. Cbz = O=C(OCc1ccccc1)*

The chains behind the UniProt entries cited, without tags or fusion partners. Where a name states a change or a piece, a line headed by the entry shows the natural chain unless it says otherwise.
UniProt Q96PM5: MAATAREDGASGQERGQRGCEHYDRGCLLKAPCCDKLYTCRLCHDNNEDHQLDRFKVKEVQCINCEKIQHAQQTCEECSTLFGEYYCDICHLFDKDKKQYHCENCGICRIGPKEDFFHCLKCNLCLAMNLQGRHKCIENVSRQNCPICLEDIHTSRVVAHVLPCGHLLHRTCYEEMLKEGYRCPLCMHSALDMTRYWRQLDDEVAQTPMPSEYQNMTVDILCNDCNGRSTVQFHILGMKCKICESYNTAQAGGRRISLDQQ
UniProt Q6JBY9, whole entry, looked up: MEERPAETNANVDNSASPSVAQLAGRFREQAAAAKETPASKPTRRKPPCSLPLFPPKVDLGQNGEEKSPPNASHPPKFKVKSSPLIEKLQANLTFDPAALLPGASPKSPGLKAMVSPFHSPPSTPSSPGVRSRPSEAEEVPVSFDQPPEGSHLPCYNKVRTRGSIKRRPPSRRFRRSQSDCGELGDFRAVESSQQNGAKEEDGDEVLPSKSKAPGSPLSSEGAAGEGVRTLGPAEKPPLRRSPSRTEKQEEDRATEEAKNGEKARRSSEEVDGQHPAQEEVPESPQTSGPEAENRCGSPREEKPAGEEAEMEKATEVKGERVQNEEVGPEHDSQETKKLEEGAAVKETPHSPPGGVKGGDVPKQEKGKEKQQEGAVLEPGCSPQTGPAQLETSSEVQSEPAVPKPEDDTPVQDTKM
UniProt A6NED2: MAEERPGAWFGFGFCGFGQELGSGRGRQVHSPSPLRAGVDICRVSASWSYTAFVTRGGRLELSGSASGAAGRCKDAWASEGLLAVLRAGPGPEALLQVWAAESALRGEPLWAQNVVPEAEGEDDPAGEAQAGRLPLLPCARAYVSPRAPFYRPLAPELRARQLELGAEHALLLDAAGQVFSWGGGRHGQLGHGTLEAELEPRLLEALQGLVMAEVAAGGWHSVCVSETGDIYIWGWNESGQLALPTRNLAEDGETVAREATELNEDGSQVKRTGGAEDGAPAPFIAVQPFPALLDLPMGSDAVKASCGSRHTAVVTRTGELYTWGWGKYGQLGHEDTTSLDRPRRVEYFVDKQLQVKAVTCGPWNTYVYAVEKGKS
UniProt Q00765: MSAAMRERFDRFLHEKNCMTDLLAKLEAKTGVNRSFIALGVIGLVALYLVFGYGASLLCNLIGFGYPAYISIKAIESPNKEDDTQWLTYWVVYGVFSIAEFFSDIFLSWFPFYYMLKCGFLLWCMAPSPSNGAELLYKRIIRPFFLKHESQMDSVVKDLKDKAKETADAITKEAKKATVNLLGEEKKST
UniProt Q8TAC1: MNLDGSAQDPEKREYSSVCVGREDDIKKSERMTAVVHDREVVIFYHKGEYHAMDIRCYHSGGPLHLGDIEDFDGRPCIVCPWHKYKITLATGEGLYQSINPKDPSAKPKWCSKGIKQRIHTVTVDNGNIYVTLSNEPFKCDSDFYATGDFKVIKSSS
UniProt P62745, whole entry, looked up: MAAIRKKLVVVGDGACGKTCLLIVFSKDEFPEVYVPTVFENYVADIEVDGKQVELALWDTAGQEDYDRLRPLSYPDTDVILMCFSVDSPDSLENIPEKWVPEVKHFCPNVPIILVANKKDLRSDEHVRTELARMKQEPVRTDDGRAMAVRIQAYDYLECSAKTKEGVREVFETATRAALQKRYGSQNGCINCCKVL
UniProt Q02094: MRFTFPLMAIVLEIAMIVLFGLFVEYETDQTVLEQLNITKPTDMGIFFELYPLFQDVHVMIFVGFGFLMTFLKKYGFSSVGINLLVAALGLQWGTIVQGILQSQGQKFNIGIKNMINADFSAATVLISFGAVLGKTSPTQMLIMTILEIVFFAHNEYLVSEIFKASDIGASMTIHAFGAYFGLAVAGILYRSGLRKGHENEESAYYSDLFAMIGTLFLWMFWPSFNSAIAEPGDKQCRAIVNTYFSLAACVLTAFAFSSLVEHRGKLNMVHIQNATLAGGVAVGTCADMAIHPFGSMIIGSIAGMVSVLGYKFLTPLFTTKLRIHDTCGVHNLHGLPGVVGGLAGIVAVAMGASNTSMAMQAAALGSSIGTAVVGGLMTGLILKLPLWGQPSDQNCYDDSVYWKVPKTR
UniProt Q8IXI1, whole entry, looked up: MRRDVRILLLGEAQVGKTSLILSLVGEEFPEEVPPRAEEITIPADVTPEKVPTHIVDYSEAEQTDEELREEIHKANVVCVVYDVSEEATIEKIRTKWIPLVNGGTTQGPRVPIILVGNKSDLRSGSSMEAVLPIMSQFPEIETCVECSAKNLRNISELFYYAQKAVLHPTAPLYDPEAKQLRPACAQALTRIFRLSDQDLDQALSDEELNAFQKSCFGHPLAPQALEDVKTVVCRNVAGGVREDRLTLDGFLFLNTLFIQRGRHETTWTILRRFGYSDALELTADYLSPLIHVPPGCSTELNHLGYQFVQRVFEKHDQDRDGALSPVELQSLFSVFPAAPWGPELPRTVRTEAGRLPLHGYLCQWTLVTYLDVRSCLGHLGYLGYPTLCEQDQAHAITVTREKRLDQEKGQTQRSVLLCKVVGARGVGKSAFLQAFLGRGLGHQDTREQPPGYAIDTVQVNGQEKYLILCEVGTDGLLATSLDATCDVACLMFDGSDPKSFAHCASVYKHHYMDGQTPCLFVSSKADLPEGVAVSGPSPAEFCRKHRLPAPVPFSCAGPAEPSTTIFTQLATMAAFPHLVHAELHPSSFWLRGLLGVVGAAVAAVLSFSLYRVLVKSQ
UniProt P38159: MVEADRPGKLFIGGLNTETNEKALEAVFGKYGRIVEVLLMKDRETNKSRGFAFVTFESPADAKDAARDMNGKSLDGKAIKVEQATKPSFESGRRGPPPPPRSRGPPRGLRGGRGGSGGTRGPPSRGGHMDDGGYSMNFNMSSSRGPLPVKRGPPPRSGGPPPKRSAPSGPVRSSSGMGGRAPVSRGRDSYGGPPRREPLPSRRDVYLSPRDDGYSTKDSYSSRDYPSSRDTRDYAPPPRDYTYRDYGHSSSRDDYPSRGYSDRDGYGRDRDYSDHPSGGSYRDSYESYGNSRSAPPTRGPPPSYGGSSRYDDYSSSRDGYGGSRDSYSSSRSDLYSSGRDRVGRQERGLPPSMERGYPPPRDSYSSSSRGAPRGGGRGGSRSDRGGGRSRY
UniProt P62877, whole entry, looked up: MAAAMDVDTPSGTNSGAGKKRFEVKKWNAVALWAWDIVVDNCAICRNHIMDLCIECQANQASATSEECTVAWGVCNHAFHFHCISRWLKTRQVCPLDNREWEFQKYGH
UniProt Q9BWE0: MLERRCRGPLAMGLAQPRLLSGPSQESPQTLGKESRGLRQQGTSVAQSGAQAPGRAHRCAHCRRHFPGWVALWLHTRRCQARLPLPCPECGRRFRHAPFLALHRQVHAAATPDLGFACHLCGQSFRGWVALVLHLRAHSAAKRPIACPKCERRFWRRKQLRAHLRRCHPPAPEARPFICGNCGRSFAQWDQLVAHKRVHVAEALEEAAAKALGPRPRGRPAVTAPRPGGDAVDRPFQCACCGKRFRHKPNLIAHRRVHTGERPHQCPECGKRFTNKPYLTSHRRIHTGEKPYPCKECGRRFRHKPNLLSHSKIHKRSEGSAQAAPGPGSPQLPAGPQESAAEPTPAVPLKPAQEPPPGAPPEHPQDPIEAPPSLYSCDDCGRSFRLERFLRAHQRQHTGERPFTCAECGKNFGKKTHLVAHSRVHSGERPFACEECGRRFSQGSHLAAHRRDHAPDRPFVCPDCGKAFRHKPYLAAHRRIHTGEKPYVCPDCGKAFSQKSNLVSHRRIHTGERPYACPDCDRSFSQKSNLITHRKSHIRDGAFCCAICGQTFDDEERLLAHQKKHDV
UniProt Q96TC7: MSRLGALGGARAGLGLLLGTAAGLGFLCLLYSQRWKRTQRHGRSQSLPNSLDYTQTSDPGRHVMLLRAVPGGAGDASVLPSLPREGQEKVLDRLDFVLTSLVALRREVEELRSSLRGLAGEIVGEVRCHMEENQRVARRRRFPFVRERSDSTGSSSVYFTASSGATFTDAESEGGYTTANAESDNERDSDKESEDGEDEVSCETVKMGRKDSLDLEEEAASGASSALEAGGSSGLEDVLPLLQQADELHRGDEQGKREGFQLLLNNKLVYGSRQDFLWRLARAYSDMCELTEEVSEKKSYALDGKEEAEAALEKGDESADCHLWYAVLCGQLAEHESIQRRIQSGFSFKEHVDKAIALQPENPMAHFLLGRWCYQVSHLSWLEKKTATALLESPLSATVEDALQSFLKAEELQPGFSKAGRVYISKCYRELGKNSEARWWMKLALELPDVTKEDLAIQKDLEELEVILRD
UniProt P51606: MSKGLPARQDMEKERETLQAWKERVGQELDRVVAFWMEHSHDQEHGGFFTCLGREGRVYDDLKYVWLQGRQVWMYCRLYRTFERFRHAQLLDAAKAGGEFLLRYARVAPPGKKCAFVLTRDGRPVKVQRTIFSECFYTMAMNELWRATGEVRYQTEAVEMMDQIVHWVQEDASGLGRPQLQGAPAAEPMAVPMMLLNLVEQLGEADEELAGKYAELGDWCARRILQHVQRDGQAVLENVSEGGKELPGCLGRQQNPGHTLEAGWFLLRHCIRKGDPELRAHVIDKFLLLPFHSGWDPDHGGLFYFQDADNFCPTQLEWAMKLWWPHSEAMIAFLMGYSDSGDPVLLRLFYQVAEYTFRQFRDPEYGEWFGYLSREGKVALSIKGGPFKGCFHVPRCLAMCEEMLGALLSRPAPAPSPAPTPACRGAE
UniProt O15258: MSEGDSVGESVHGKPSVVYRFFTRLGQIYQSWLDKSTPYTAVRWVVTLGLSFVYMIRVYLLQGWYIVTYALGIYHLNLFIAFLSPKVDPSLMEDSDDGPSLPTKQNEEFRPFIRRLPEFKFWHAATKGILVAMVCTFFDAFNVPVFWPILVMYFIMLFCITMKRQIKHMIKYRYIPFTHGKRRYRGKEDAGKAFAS
UniProt Q9H0Z9: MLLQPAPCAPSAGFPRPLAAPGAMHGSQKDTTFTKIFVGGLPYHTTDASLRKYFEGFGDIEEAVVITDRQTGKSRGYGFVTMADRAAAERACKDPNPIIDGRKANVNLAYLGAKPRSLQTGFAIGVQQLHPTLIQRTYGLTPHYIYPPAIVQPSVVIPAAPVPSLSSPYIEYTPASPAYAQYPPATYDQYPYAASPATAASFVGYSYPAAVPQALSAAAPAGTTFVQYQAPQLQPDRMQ
UniProt Q96I51, whole entry, looked up: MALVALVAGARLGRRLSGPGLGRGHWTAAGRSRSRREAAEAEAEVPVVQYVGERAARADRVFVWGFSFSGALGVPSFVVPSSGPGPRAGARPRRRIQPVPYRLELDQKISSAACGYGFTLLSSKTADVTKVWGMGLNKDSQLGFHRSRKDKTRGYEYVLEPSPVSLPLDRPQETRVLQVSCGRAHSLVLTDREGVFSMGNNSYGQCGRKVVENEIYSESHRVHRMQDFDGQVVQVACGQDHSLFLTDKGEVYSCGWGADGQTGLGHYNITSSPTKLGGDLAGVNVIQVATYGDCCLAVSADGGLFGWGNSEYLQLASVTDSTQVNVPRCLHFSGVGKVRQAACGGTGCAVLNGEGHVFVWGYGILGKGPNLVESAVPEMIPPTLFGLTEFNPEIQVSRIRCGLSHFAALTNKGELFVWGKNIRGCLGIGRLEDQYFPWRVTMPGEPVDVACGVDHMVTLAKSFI

Experiments:
Test in all cases: log2 fold change, soluble protein after heating vs DMSO (PISA); higher = thermal stabilisation; K562 cells, 10 uM, 30 min; active = over 0.2 and 3.5 SD of the protein, either way, in both replicates (recomputed)
IRAK-1-4 Inhibitor I = compound: C1COCCN1CCN2C3=CC=CC=C3N=C2NC(=O)C4=CC(=CC=C4)[N+](=O)[O-] [IRAK-1-4 Inhibitor I]
Summary of the method: (§1)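 Thermal stability values are relative to control samples and come from duplicates. They are expressed as log2 fold changes. For measurement, K562 cells (2×10^6 cells/mL) received 10 μM compound for 30 min, and aliquots were heated for 3 min over 48°C-58°C, pooled, and extracted at 4°C in PBS with 0.5% NP-40. Soluble protein, the supernatant after 21,000xg for 90 min, was quantified by TMTpro 16plex LC-MS/MS with equalised channel sums.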

ibrutinib = compound: C=CC(=O)N1CCC[C@@H](n2nc(-c3ccc(Oc4ccccc4)cc3)c3c(N)ncnc32)C1 [ibrutinib]
Summary of the method: as §1

[1] = compound: CC(=O)c1cnc2ccc(-c3cc(Cl)c(O)c(Cl)c3)nc2c1N[C@H]1CC[C@H](CN(C)C)CC1
Summary of the method: as §1

ralimetinib = compound: CC(C)(C)Cn1c(N)nc2ccc(-c3[nH]c(C(C)(C)C)nc3-c3ccc(F)cc3)nc21 [ralimetinib]
Summary of the method: as §1

[2] = compound: CC(C)(O)CC(=O)NCCn1ccc2ncnc(Nc3ccc(Oc4cccc(C(F)(F)F)c4)c(Cl)c3)c21
Summary of the method: as §1

[3] = compound: CC(C)C1=C2N=C(C=C(N2N=C1)NCC3=CC=CC=C3)NCCCCCCN
Summary of the method: as §1

[4] = compound: CC(C)C[C@@H](C=O)NC(=O)[C@H](CC(C)C)NC(=O)[C@H](CC(C)C)NC(=O)OCc1ccccc1
Summary of the method: as §1

pinometostat = compound: CC(C)N(C[C@H]1O[C@@H](n2cnc3c(N)ncnc32)[C@H](O)[C@@H]1O)[C@H]1C[C@@H](CCc2nc3cc(C(C)(C)C)ccc3[nH]2)C1 [pinometostat]
Summary of the method: as §1

[5] = compound: CC1=C(C(CC(=O)N1)C2=CC=C(C=C2)C(F)(F)F)C(=O)NC3=C(C=C4C(=C3)C=NN4)F
Summary of the method: as §1

[6] = compound: CC1=C(C2=C(C=C1)C(=O)C3=CC=CC=C3N2CCCN)C
Summary of the method: as §1

[7] = compound: CC1=C(C=C(C=C1)NC(=O)C2=CC(=CC=C2)C(C)(C)C#N)NC3=CC4=C(C=C3)N=CN(C4=O)C
Summary of the method: as §1

[8] = compound: CC1=C(C=C(C=C1)NC(=O)C2=CC(=CC=C2)N(C)C)NC(=O)C3=CC=C(C=C3)O
Summary of the method: as §1

[9] = compound: CC1=CC=C(C=C1)SC2=C3C=C(SC3=CN=C2)C(=O)N
Summary of the method: as §1

[10] = compound: CC1=NC(=CC=C1)C2=C(N=C(N2)C(C)(C)C)C3=CC4=NC=CN=C4C=C3
Summary of the method: as §1

Nexturastat A = compound: CCCCN(Cc1ccc(C(=O)NO)cc1)C(=O)Nc1ccccc1 [Nexturastat A]
Summary of the method: as §1

vemurafenib = compound: CCCS(=O)(=O)Nc1ccc(F)c(C(=O)c2c[nH]c3ncc(-c4ccc(Cl)cc4)cc23)c1F [vemurafenib]
Summary of the method: as §1

[11] = compound: CCCS(=O)(=O)Nc1ccc(F)c(C(=O)c2c[nH]c3ncc(Cl)cc23)c1F
Summary of the method: as §1

[12] = compound: CCCc1cc(C)[nH]c(=O)c1CNC(=O)c1cc(-c2ccnc(N3CCN(C)CC3)c2)cc2c1cnn2C(C)C
Summary of the method: as §1

givinostat = compound: CCN(CC)Cc1ccc2cc(COC(=O)Nc3ccc(C(=O)NO)cc3)ccc2c1 [givinostat]
Summary of the method: as §1

barasertib = compound: CCN(CCCOc1ccc2c(Nc3cc(CC(=O)Nc4cccc(F)c4)[nH]n3)ncnc2c1)CCOP(=O)(O)O [barasertib]
Summary of the method: as §1

Measured: log2 fold change

RCHY1 (UniProt Q96PM5)
inactive: IRAK-1-4 Inhibitor I 0.105 | ibrutinib 0.08 | [1] 0.047 | ralimetinib 0.025 | [2] 0.009 | [3] 0.134 | [4] 0.008 | pinometostat -0.034 | [5] 0.07 | [6] -0.043 | [7] 0.015 | [8] -0.065 | [9] 0.001 | [10] 0.083 | Nexturastat A -0.052 | vemurafenib -0.055 | [11] 0.023 | [12] -0.002 | givinostat -0.062 | barasertib 0.033

RCSD1 (UniProt Q6JBY9)
inactive: IRAK-1-4 Inhibitor I 0.012 | ibrutinib 0.183 | [1] 0.227 | ralimetinib -0.032 | [2] -0.041 | [3] 0.014 | [4] 0.002 | pinometostat -0.07 | [5] 0.016 | [6] -0.039 | [7] -0.097 | [8] 0.013 | [9] -0.007 | [10] 0.044 | Nexturastat A 0.116 | vemurafenib -0.056 | [11] 0.034 | [12] -0.059 | givinostat 0.005 | barasertib -0.006

RCCD1 (UniProt A6NED2)
inactive: IRAK-1-4 Inhibitor I -0.038 | ibrutinib 0.026 | [1] 0.047 | ralimetinib -0.015 | [2] -0.037 | [3] 0.031 | [4] 0.007 | pinometostat 0.01 | [5] -0.021 | [6] 0.016 | [7] 0 | [8] -0.013 | [9] 0.028 | [10] 0.015 | Nexturastat A -0.008 | vemurafenib 0.018 | [11] -0.033 | [12] 0.226 | givinostat -0.02 | barasertib 0.045

REEP5 (UniProt Q00765)
inactive: IRAK-1-4 Inhibitor I 0.086 | ibrutinib 0.011 | [1] -0.078 | ralimetinib 0.057 | [2] 0.054 | [3] 0.1 | [4] 0.071 | pinometostat -0.06 | [5] 0.022 | [6] 0.057 | [7] -0.003 | [8] 0.057 | [9] 0.013 | [10] -0.004 | Nexturastat A 0.024 | vemurafenib -0.063 | [11] -0.07 | [12] -0.106 | givinostat -0.112 | barasertib 0.003

RFESD isoform 2 (UniProt Q8TAC1)
inactive: IRAK-1-4 Inhibitor I 0.042 | ibrutinib 0.023 | [1] 0.016 | ralimetinib -0.048 | [2] -0.104 | [3] 0.114 | [4] 0.059 | pinometostat -0.052 | [5] 0.043 | [6] 0 | [7] -0.042 | [8] -0.012 | [9] -0.075 | [10] 0 | Nexturastat A 0.014 | vemurafenib 0.001 | [11] -0.028 | [12] -0.008 | givinostat -0.174 | barasertib -0.012

RHOB (UniProt P62745)
inactive: IRAK-1-4 Inhibitor I -0.043 | ibrutinib 0.03 | [1] 0.185 | ralimetinib -0.012 | [2] -0.138 | [3] 0.017 | [4] -0.136 | pinometostat -0.055 | [5] 0.055 | [6] -0.077 | [7] 0.004 | [8] -0.007 | [9] 0.143 | [10] 0.138 | Nexturastat A 0.249 | vemurafenib -0.251 | [11] -0.122 | [12] -0.014 | givinostat -0.23 | barasertib 0.014

RHAG (UniProt Q02094)
inactive: IRAK-1-4 Inhibitor I -0.005 | ibrutinib 0.026 | [1] -0.019 | ralimetinib -0.113 | [2] -0.099 | [3] -0.297 | [4] -0.043 | pinometostat -0.038 | [5] -0.027 | [6] -0.016 | [7] 0.174 | [8] -0.009 | [9] 0.05 | [10] 0.195 | Nexturastat A 0.001 | vemurafenib 0.073 | [11] 0.192 | [12] -0.326 | givinostat 0.054 | barasertib -0.06

RHOT2 (UniProt Q8IXI1)
inactive: IRAK-1-4 Inhibitor I -0.087 | ibrutinib -0.004 | [1] -0.013 | ralimetinib 0 | [2] -0.065 | [3] -0.002 | [4] -0.019 | pinometostat 0.058 | [5] -0.023 | [6] 0.036 | [7] -0.044 | [8] -0.012 | [9] 0.071 | [10] -0.017 | Nexturastat A 0.006 | vemurafenib 0.016 | [11] 0.069 | [12] -0.018 | givinostat 0.094 | barasertib 0.015

RBMX (UniProt P38159)
inactive: IRAK-1-4 Inhibitor I -0.218 | ibrutinib 0.017 | [1] -0.021 | ralimetinib 0.139 | [2] 0.064 | [3] 0.1 | [4] 0.211 | pinometostat 0.16 | [5] -0.028 | [6] -0.16 | [7] 0.015 | [8] 0.009 | [9] -0.009 | [10] -0.019 | Nexturastat A 0.349 | vemurafenib 0.011 | [11] -0.006 | [12] 0.187 | givinostat 0.161 | barasertib -0.112

RBX1 (UniProt P62877)
inactive: IRAK-1-4 Inhibitor I -0.048 | ibrutinib 0.023 | [1] -0.044 | ralimetinib -0.039 | [2] -0.07 | [3] 0.071 | [4] -0.076 | pinometostat 0.015 | [5] 0.022 | [6] 0.132 | [7] 0.06 | [8] -0.01 | [9] -0.047 | [10] 0.021 | Nexturastat A -0.041 | vemurafenib 0.002 | [11] -0.111 | [12] -0.072 | givinostat -0.152 | barasertib 0.001

REPIN1 isoform 4 (UniProt Q9BWE0)
inactive: IRAK-1-4 Inhibitor I 0.036 | ibrutinib 0.057 | [1] 0.003 | ralimetinib -0.019 | [2] -0.07 | [3] 0.021 | [4] -0.002 | pinometostat -0.017 | [5] 0.043 | [6] 0.061 | [7] 0.005 | [8] -0.025 | [9] -0.016 | [10] 0.021 | Nexturastat A 0.024 | vemurafenib 0.021 | [11] 0.026 | [12] -0.097 | givinostat -0.023 | barasertib -0.004

RMDN3 (UniProt Q96TC7)
inactive: IRAK-1-4 Inhibitor I -0.048 | ibrutinib -0.013 | [1] -0.076 | ralimetinib 0.005 | [2] 0.033 | [3] -0.084 | [4] 0.027 | pinometostat -0.009 | [5] -0.012 | [6] 0.051 | [7] -0.006 | [8] -0.034 | [9] 0.01 | [10] 0.065 | Nexturastat A -0.065 | vemurafenib -0.01 | [11] 0.023 | [12] 0.009 | givinostat 0.068 | barasertib 0.024

Copied from the entries so far (four entries):
RHOT2 (UniProt Q8IXI1)
inactive: IRAK-1-4 Inhibitor I -0.087 | ibrutinib -0.004 | [1] -0.013 | ralimetinib 0 | [2] -0.065 | [3] -0.002 | [4] -0.019 | pinometostat 0.058 | [5] -0.023 | [6] 0.036 | [7] -0.044 | [8] -0.012 | [9] 0.071 | [10] -0.017 | Nexturastat A 0.006 | vemurafenib 0.016 | [11] 0.069 | [12] -0.018 | givinostat 0.094 | barasertib 0.015

RBMX (UniProt P38159)
inactive: IRAK-1-4 Inhibitor I -0.218 | ibrutinib 0.017 | [1] -0.021 | ralimetinib 0.139 | [2] 0.064 | [3] 0.1 | [4] 0.211 | pinometostat 0.16 | [5] -0.028 | [6] -0.16 | [7] 0.015 | [8] 0.009 | [9] -0.009 | [10] -0.019 | Nexturastat A 0.349 | vemurafenib 0.011 | [11] -0.006 | [12] 0.187 | givinostat 0.161 | barasertib -0.112

RBX1 (UniProt P62877)
inactive: IRAK-1-4 Inhibitor I -0.048 | ibrutinib 0.023 | [1] -0.044 | ralimetinib -0.039 | [2] -0.07 | [3] 0.071 | [4] -0.076 | pinometostat 0.015 | [5] 0.022 | [6] 0.132 | [7] 0.06 | [8] -0.01 | [9] -0.047 | [10] 0.021 | Nexturastat A -0.041 | vemurafenib 0.002 | [11] -0.111 | [12] -0.072 | givinostat -0.152 | barasertib 0.001

REPIN1 isoform 4 (UniProt Q9BWE0)
inactive: IRAK-1-4 Inhibitor I 0.036 | ibrutinib 0.057 | [1] 0.003 | ralimetinib -0.019 | [2] -0.07 | [3] 0.021 | [4] -0.002 | pinometostat -0.017 | [5] 0.043 | [6] 0.061 | [7] 0.005 | [8] -0.025 | [9] -0.016 | [10] 0.021 | Nexturastat A 0.024 | vemurafenib 0.021 | [11] 0.026 | [12] -0.097 | givinostat -0.023 | barasertib -0.004

More records

RENBP (UniProt P51606)
inactive: IRAK-1-4 Inhibitor I -0.049 | ibrutinib -0.002 | [1] -0.023 | ralimetinib -0.108 | [2] 0.022 | [3] 0.058 | [4] -0.017 | pinometostat 0.007 | [5] 0.001 | [6] -0.017 | [7] -0.029 | [8] -0.012 | [9] 0.022 | [10] -0.012 | Nexturastat A -0.117 | vemurafenib -0.006 | [11] -0.003 | [12] -0.033 | givinostat 0.004 | barasertib 0.015

RER1 (UniProt O15258)
inactive: IRAK-1-4 Inhibitor I 0.032 | ibrutinib -0.003 | [1] 0.092 | ralimetinib -0.033 | [2] 0.049 | [3] -0.063 | [4] 0.066 | pinometostat -0.056 | [5] -0.041 | [6] -0.001 | [7] -0.02 | [8] 0.037 | [9] -0.001 | [10] 0.012 | Nexturastat A 0.013 | vemurafenib 0.022 | [11] 0.033 | [12] 0.043 | givinostat 0.014 | barasertib -0.024

RBM38 (UniProt Q9H0Z9)
inactive: IRAK-1-4 Inhibitor I 0.056 | ibrutinib 0.083 | [1] -0.03 | ralimetinib -0.052 | [2] -0.062 | [3] 0.033 | [4] 0 | pinometostat -0.006 | [5] 0.011 | [6] 0.172 | [7] -0.018 | [8] -0.165 | [9] 0.055 | [10] 0.037 | Nexturastat A -0.003 | vemurafenib -0.123 | [11] -0.049 | [12] 0.004 | givinostat -0.004 | barasertib 0.039

RCC1L (UniProt Q96I51)
inactive: IRAK-1-4 Inhibitor I -0.008 | ibrutinib 0.016 | [1] -0.006 | ralimetinib 0.049 | [2] 0.006 | [3] 0.039 | [4] -0.039 | pinometostat -0.069 | [5] -0.002 | [6] 0.042 | [7] -0.033 | [8] -0.036 | [9] 0.025 | [10] 0.015 | Nexturastat A -0.04 | vemurafenib -0.003 | [11] -0.007 | [12] -0.03 | givinostat 0.001 | barasertib 0.007
